Test results from publication PMC4148261.
Results are given in words; binding and its absence hold for the method and conditions named.

Target: Recombinant His-tagged Hsp70 protein, equivalent to HSPA1A
Test: ELISA; peptide ELISA: heat shock proteins coated on MaxiSorp plates (1 µg/well/100 µl, carbonate buffer pH 9.6, 4°C overnight), blocked with PBS 2% BSA; CF-labeled peptides 100, 50, 25 ng/ml, 27°C 30 min; fluorescence counts read; both purified

Binder: NGLTLKNDFSRLEG (carboxyfluorescein (CF) label, position not stated) [carboxyfluorescein (CF-) labeled scrambled peptide]
- binding: no binding (tested: 100 ng/ml)
